Experimental data as given in paper PMC12365249.
Results are given in words; binding and its absence hold for the method and conditions named. In cells and extracts the contact can be indirect. Some results given as binding are weak or reduced against the parent protein; the word gives no strength. For some of these results: Where a sequence is shown, tags or fusion partners need not be part of it.

Chains of the proteins cited; added tags and fusions are not shown. Lines headed by an entry give the natural chain unless they say otherwise; changes in a name come on top.
UniProt Q96RN5: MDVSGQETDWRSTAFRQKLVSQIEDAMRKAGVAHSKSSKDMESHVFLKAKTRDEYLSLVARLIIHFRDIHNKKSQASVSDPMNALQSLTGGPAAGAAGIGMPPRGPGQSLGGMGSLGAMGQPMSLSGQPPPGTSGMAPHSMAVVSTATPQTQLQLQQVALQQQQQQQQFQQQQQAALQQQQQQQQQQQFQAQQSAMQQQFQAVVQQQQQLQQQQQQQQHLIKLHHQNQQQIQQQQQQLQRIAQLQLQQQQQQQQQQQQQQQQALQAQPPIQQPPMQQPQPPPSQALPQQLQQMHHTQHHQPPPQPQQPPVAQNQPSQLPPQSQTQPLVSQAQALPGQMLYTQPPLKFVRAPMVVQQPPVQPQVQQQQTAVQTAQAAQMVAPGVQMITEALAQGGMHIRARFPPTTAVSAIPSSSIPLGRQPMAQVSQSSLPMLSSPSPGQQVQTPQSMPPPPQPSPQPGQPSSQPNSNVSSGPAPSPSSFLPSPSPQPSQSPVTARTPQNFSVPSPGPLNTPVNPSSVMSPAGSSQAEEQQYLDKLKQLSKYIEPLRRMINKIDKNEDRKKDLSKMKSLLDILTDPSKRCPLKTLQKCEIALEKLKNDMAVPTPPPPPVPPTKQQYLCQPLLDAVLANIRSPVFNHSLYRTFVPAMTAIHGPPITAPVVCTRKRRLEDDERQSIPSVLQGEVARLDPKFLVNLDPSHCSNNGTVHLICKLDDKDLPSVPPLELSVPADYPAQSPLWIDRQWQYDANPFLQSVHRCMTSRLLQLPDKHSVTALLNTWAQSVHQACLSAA

Assays:
[1] = target: T1, forkhead box protein A1 (FOXA1), endogenous in HaCaT cells (human (endogenous in HaCaT)) (UniProt P55317); assay: co-IP; endogenous co-IP with a FOXA1 antibody in WT and T603A mutant HaCaT cells treated without or with TGFβ for 3 h; blots for MED15 and pMED15
T1 sequence: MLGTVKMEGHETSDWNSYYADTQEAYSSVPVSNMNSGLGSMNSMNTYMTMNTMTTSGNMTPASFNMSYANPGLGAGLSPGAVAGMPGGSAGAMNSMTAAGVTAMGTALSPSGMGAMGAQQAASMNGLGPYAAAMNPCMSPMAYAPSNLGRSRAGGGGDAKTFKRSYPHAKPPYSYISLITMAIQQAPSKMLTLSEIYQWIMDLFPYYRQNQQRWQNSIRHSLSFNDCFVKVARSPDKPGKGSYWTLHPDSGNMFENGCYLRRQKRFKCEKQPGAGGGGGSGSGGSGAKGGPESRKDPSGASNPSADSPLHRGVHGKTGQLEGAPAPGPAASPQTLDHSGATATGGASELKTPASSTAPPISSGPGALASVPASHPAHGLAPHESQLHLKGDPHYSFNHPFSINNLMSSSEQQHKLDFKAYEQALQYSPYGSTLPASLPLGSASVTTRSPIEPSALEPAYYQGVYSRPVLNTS

[2] = target: T2, FLAG-FOXA1 (UniProt P55317); assay: co-IP; FLAG beads to pull down FLAG-FOXA1 in FLAG-FOXA1-overexpressing and control 293T cells
T2 sequence: T1 sequence

Substance | binding [1] | binding [2]
MED15 T603A (endogenous single-site mutant, dephosphorylated mutant) (from UniProt Q96RN5 1-788) | binds | 
MED15, in 293T cells (co-IP with FLAG-FOXA1) (from UniProt Q96RN5 1-788) |  | binds
MED15, endogenous wild type in HaCaT cells (from UniProt Q96RN5 1-788) | binds | 
MED15 phosphorylated at T603 (from UniProt Q96RN5 1-788) | binds weakly | 
